This is an account of results in article PMC8522691.

By UniProt entry, the sequences of proteins in these tests, tags left out. Where a name states a change or a piece, a line headed by the entry shows the natural chain unless it says otherwise. Residues count along the entry.
UniProt P21513: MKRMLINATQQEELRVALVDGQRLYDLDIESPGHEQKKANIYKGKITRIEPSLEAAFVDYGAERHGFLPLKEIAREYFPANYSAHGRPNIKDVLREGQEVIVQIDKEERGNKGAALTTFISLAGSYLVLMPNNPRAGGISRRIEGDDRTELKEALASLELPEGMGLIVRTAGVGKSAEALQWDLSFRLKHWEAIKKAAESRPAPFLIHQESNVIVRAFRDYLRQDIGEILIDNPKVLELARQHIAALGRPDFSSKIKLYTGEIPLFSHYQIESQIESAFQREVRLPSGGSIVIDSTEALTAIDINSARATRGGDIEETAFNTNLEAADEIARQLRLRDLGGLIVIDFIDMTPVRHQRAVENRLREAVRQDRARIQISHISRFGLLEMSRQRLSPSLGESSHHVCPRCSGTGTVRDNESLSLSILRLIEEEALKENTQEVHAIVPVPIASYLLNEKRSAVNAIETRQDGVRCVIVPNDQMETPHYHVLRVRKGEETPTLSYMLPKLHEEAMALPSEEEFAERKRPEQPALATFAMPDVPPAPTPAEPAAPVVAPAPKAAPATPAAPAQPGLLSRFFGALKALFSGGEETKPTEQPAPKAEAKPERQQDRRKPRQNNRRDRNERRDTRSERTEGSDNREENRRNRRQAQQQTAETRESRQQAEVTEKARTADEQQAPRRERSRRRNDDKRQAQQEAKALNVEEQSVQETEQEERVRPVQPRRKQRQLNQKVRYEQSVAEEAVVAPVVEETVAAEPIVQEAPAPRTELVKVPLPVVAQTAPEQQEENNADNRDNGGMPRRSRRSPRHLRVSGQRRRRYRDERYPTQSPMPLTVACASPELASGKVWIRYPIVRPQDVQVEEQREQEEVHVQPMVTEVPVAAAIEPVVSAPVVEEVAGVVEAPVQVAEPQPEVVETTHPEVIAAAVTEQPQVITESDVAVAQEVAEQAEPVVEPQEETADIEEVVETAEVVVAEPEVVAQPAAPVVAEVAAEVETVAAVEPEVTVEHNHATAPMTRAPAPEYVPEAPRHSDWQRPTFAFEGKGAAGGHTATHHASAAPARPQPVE
RNase E 1-850 (of the truncated degradosome): residues 1-850 of P21513
UniProt P0A6P9: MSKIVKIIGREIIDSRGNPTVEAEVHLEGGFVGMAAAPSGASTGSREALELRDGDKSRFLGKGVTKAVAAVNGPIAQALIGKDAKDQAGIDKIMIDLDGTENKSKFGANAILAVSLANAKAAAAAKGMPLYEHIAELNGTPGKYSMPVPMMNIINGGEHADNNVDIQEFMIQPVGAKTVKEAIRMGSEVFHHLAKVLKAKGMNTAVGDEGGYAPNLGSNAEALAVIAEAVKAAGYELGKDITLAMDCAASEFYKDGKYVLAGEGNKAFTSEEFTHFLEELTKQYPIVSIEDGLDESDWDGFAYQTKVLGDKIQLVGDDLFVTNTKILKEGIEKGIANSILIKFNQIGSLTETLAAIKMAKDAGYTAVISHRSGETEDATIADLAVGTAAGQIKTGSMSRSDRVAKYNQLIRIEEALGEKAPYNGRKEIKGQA

No constants are given. Whether binding was seen depends on the method and setting. Some results given as binding are weak or reduced against the parent protein; the word gives no strength.

Experiment [1] has as its target RNase E 1-850 (of the truncated degradosome) (Escherichia coli) (UniProt P21513). Put plainly: co-purification (nickel affinity column, cation exchange, size exclusion); lysate of E. coli ENS134-10 co-expressing RNase E 1-850, RhlB and enolase on a nickel-charged HiTrap Chelating column, washed with 1 M NaCl, 100 mM imidazole, 0.02% beta-DDM; then SP HP column and Superose 6 10/300 in 50 mM HEPES pH 7.5, 400 mM NaCl, 100 mM KCl, 5 mM DTT, 0.02% beta-DDM.

The target of experiment [2] is RNase E 1-1061 (chromosomally strep-tagged RNase E of the full degradosome) (Escherichia coli (endogenous in strain NCM3416)) (UniProt P21513). Put plainly: co-purification (Strep affinity column, heparin column, size exclusion); lysate of E. coli NCM3416 with chromosomally strep-tagged RNase E on a HiTrap Strep column, washed with 1 M NaCl, 100 mM KCl, 0.02% beta-DDM; then HiTrap Heparin and Superose 6 10/300 in 50 mM HEPES pH 7.5, 400 mM NaCl, 100 mM KCl, 5 mM DTT, 0.02% beta-DDM. For orientation: SEC sorts molecules by how far they enter the pores of the column.

On to “full-length enolase (of the truncated degradosome) (from UniProt P0A6P9 1-432) (enzyme)”, for which, in experiment [1], the binding result was “binds”.
For “enolase (of the full degradosome) (from UniProt P0A6P9 1-432) (enzyme)”, the binding entry in experiment [2] is “binds”.

B1: PNPase (of the full degradosome) (enzyme, UniProt P05055 1-711)
chain: MLNPIVRKFQYGQHTVTLETGMMARQATAAVMVSMDDTAVFVTVVGQKKAKPGQDFFPLTVNYQERTYAAGRIPGSFFRREGRPSEGETLIARLIDRPIRPLFPEGFVNEVQVIATVVSVNPQVNPDIVAMIGASAALSLSGIPFNGPIGAARVGYINDQYVLNPTQDELKESKLDLVVAGTEAAVLMVESEAQLLSEDQMLGAVVFGHEQQQVVIQNINELVKEAGKPRWDWQPEPVNEALNARVAALAEARLSDAYRITDKQERYAQVDVIKSETIATLLAEDETLDENELGEILHAIEKNVVRSRVLAGEPRIDGREKDMIRGLDVRTGVLPRTHGSALFTRGETQALVTATLGTARDAQVLDELMGERTDTFLFHYNFPPYSVGETGMVGSPKRREIGHGRLAKRGVLAVMPDMDKFPYTVRVVSEITESNGSSSMASVCGASLALMDAGVPIKAAVAGIAMGLVKEGDNYVVLSDILGDEDHLGDMDFKVAGSRDGISALQMDIKIEGITKEIMQVALNQAKGARLHILGVMEQAINAPRGDISEFAPRIHTIKINPDKIKDVIGKGGSVIRALTEETGTTIEIEDDGTVKIAATDGEKAKHAIRRIEEITAEIEVGRVYTGKVTRIVDFGAFVAIGGGKEGLVHISQIADKRVEKVTDYLQMGQEVPVKVLEVDRQGRIRLSIKEATEQSQPAAAPEAPAAEQGE
Take B1: the binding result in experiment [2] was “binds”.
